# ± gives the standard deviation of the averaged measurements. This is one part of the list.
# Legend:
# Assay in all cases: NP40-soluble protein abundance relative to vehicle (solubility fold change) (ratio); higher = more soluble protein in presence of GTP
# TXNL1 = biological target: T1, TXNL1 (UniProt O43396)
# T1 sequence (whole entry): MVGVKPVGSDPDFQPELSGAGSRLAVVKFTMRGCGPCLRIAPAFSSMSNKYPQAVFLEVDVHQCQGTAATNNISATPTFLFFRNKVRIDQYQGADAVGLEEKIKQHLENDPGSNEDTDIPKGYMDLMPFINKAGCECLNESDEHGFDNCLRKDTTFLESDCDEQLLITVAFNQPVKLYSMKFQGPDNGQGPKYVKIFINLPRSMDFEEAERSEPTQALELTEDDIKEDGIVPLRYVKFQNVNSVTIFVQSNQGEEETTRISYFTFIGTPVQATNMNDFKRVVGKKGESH
# Summary of the method: (§1)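 Across three independent experiments, values are fold changes against the detergent-processed vehicle for each replicate, based on vsn-normalised intensities. The samples were Jurkat crude lysate treated with eight concentrations (0.1 to 10 mM) for 10 min at room temperature and then 3 min at 37 °C. Lysate was solubilised with 0.8% NP40 and benzonase, ultracentrifuged, and the supernatant analysed by TMT-labelled LC-MS/MS.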
# [1] = biological target: T2, UniProt O14966 and related entries
# T2 sequence (whole entry): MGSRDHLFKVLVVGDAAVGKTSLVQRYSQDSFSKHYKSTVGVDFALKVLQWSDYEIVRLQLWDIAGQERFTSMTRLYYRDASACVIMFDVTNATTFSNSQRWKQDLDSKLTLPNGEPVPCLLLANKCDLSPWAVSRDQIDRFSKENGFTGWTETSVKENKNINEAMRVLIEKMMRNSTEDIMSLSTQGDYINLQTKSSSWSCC
# Summary of the method: as §1
# UniProt O15091 = biological target: T3, UniProt O15091
# T3 sequence (whole entry): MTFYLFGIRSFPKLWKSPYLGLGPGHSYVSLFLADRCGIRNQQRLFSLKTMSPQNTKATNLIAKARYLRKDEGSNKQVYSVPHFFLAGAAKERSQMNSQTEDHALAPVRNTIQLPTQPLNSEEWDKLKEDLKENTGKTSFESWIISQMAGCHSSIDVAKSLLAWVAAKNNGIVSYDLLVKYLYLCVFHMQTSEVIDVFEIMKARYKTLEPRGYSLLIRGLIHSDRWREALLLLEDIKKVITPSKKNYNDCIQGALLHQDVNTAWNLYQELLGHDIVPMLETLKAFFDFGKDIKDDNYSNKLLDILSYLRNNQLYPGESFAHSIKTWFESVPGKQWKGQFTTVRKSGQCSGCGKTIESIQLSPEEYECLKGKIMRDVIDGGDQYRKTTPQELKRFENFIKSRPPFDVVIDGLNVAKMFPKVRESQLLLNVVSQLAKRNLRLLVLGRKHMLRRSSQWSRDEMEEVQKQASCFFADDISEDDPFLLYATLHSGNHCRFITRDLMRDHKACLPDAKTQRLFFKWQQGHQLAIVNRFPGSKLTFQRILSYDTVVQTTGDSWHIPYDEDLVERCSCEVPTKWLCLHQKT
# Summary of the method: as §1
# [2] = biological target: T4, UniProt O15173 and related entries
# T4 sequence (whole entry): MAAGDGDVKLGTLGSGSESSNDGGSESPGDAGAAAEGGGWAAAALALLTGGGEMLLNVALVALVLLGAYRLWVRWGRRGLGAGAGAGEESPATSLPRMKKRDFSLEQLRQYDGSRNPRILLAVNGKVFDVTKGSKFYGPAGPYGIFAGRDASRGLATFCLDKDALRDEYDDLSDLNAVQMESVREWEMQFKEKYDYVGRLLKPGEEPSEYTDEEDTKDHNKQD
# Summary of the method: as §1
# [3] = biological target: T5, UniProt O43402 and related entries
# T5 sequence (whole entry): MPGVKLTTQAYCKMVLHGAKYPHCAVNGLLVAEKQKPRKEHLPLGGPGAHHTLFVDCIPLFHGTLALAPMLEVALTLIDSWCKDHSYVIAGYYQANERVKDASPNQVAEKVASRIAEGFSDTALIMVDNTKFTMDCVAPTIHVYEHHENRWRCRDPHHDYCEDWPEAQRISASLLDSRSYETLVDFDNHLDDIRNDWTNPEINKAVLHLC
# Summary of the method: as §1
# [4] = biological target: T6, UniProt O43663 and related entries
# T6 sequence (whole entry): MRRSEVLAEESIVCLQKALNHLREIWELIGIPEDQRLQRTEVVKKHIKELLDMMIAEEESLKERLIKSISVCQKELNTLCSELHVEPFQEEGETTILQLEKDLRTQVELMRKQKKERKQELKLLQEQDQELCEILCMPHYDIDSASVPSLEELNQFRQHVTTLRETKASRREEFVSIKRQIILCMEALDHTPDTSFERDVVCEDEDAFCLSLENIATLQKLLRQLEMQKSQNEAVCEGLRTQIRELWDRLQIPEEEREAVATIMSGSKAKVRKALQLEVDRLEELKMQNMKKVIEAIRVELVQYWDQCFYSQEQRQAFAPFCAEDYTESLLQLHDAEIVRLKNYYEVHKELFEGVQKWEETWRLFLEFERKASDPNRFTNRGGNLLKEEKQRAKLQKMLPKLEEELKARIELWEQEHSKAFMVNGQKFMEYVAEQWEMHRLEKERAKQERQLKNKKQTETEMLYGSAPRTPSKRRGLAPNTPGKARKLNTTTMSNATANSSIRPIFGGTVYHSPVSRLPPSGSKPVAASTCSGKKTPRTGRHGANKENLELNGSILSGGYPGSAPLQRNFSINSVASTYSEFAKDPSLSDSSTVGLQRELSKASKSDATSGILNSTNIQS
# Summary of the method: as §1
# [5] = biological target: T7, UniProt O60671 and related entries
# T7 sequence (whole entry): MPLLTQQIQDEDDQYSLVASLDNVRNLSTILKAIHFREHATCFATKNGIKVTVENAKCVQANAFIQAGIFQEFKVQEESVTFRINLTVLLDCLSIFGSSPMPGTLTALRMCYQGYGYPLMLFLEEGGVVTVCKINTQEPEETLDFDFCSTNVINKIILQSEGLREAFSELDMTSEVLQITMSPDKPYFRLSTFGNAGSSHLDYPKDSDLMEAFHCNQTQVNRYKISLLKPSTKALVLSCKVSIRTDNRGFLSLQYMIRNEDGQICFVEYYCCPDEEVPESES
# Summary of the method: as §1
smiles,measurement,setting,value
Nc1nc2c(ncn2[C@@H]2O[C@H](COP(=O)(O)OP(=O)(O)OP(=O)(O)O)[C@@H](O)[C@H]2O)c(=O)[nH]1 [guanosine triphosphate],NP40-soluble protein abundance,TXNL1; concentration: 0.1mM,0.993 ± 0.02
same,NP40-soluble protein abundance,TXNL1; concentration: 0.5mM,1.03 ± 0.064
same,NP40-soluble protein abundance,TXNL1; concentration: 1mM,1.02 ± 0.042
same,NP40-soluble protein abundance,TXNL1; concentration: 2mM,1.01 ± 0.07
same,NP40-soluble protein abundance,TXNL1; concentration: 4mM,1 ± 0.052
same,NP40-soluble protein abundance,TXNL1; concentration: 6mM,1.01 ± 0.046
same,NP40-soluble protein abundance,TXNL1; concentration: 8mM,1 ± 0.044
same,NP40-soluble protein abundance,TXNL1; concentration: 10mM,1.01 ± 0.054
same,NP40-soluble protein abundance,[1]; concentration: 0.1mM,0.944 ± 0.023
same,NP40-soluble protein abundance,[1]; concentration: 0.5mM,0.929 ± 0.11
same,NP40-soluble protein abundance,[1]; concentration: 1mM,0.842 ± 0.038
same,NP40-soluble protein abundance,[1]; concentration: 2mM,0.841 ± 0.07
same,NP40-soluble protein abundance,[1]; concentration: 4mM,0.835 ± 0.018
same,NP40-soluble protein abundance,[1]; concentration: 6mM,0.858 ± 0.042
same,NP40-soluble protein abundance,[1]; concentration: 8mM,0.8412 ± 0.0043
same,NP40-soluble protein abundance,[1]; concentration: 10mM,0.856 ± 0.11
same,NP40-soluble protein abundance,UniProt O15091; concentration: 0.1mM,1.04 ± 0.026
same,NP40-soluble protein abundance,UniProt O15091; concentration: 0.5mM,1 ± 0.041
same,NP40-soluble protein abundance,UniProt O15091; concentration: 1mM,0.9614 ± 0.0086
same,NP40-soluble protein abundance,UniProt O15091; concentration: 2mM,0.979 ± 0.066
same,NP40-soluble protein abundance,UniProt O15091; concentration: 4mM,0.999 ± 0.046
same,NP40-soluble protein abundance,UniProt O15091; concentration: 6mM,0.971 ± 0.039
same,NP40-soluble protein abundance,UniProt O15091; concentration: 8mM,0.9685 ± 0.0064
same,NP40-soluble protein abundance,UniProt O15091; concentration: 10mM,0.969 ± 0.036
same,NP40-soluble protein abundance,[2]; concentration: 0.1mM,0.944 ± 0.082
same,NP40-soluble protein abundance,[2]; concentration: 0.5mM,0.83 ± 0.056
same,NP40-soluble protein abundance,[2]; concentration: 1mM,0.954 ± 0.067
same,NP40-soluble protein abundance,[2]; concentration: 2mM,0.905 ± 0.018
same,NP40-soluble protein abundance,[2]; concentration: 4mM,0.924 ± 0.025
same,NP40-soluble protein abundance,[2]; concentration: 6mM,0.883 ± 0.027
same,NP40-soluble protein abundance,[2]; concentration: 8mM,0.882 ± 0.068
same,NP40-soluble protein abundance,[2]; concentration: 10mM,0.878 ± 0.047
same,NP40-soluble protein abundance,[3]; concentration: 0.1mM,0.966 ± 0.074
same,NP40-soluble protein abundance,[3]; concentration: 0.5mM,0.957 ± 0.093
same,NP40-soluble protein abundance,[3]; concentration: 1mM,0.923 ± 0.095
same,NP40-soluble protein abundance,[3]; concentration: 2mM,0.92 ± 0.042
same,NP40-soluble protein abundance,[3]; concentration: 4mM,0.958 ± 0.073
same,NP40-soluble protein abundance,[3]; concentration: 6mM,0.906 ± 0.096
same,NP40-soluble protein abundance,[3]; concentration: 8mM,0.923 ± 0.087
same,NP40-soluble protein abundance,[3]; concentration: 10mM,0.941 ± 0.068
same,NP40-soluble protein abundance,[4]; concentration: 0.1mM,1.06 ± 0.15
same,NP40-soluble protein abundance,[4]; concentration: 0.5mM,1 ± 0.084
same,NP40-soluble protein abundance,[4]; concentration: 1mM,1.03 ± 0.086
same,NP40-soluble protein abundance,[4]; concentration: 2mM,1.1 ± 0.14
same,NP40-soluble protein abundance,[4]; concentration: 4mM,1.13 ± 0.094
same,NP40-soluble protein abundance,[4]; concentration: 6mM,1.12 ± 0.065
same,NP40-soluble protein abundance,[4]; concentration: 8mM,1.09 ± 0.047
same,NP40-soluble protein abundance,[4]; concentration: 10mM,1.15 ± 0.095
same,NP40-soluble protein abundance,[5]; concentration: 0.1mM,0.98 ± 0.019
same,NP40-soluble protein abundance,[5]; concentration: 0.5mM,1.01 ± 0.077
same,NP40-soluble protein abundance,[5]; concentration: 1mM,0.907 ± 0.043
same,NP40-soluble protein abundance,[5]; concentration: 2mM,0.975 ± 0.082
same,NP40-soluble protein abundance,[5]; concentration: 4mM,0.953 ± 0.062
same,NP40-soluble protein abundance,[5]; concentration: 6mM,0.944 ± 0.075
same,NP40-soluble protein abundance,[5]; concentration: 8mM,0.922 ± 0.023
same,NP40-soluble protein abundance,[5]; concentration: 10mM,0.92 ± 0.08

# An excerpt of these results, tab-delimited.
smiles	measurement	setting	value
Nc1nc2c(ncn2[C@@H]2O[C@H](COP(=O)(O)OP(=O)(O)OP(=O)(O)O)[C@@H](O)[C@H]2O)c(=O)[nH]1 [guanosine triphosphate]	NP40-soluble protein abundance	[2]; concentration: 10mM	0.878 ± 0.047
same	NP40-soluble protein abundance	[3]; concentration: 0.1mM	0.966 ± 0.074

# Two records picked at random from the list so far:
smiles,measurement,setting,value
Nc1nc2c(ncn2[C@@H]2O[C@H](COP(=O)(O)OP(=O)(O)OP(=O)(O)O)[C@@H](O)[C@H]2O)c(=O)[nH]1 [guanosine triphosphate],NP40-soluble protein abundance,[4]; concentration: 6mM,1.12 ± 0.065
same,NP40-soluble protein abundance,[1]; concentration: 0.5mM,0.929 ± 0.11

# Reference: the supplement of paper PMC6411743
